This passage reports binding results from doi:10.1101/2024.01.28.577638.

Sequences of proteins named here, by UniProt entry; tags and fusion partners are left off.
UniProt Q96DH6: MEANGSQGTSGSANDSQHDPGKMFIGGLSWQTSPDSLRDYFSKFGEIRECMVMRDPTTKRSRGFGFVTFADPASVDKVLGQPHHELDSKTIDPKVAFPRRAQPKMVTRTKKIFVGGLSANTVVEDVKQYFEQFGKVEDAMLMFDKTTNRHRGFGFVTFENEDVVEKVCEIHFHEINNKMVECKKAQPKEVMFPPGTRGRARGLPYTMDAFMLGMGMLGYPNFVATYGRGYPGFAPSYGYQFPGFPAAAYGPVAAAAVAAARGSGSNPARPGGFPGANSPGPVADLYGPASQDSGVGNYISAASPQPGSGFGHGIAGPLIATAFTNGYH
UniProt P35222: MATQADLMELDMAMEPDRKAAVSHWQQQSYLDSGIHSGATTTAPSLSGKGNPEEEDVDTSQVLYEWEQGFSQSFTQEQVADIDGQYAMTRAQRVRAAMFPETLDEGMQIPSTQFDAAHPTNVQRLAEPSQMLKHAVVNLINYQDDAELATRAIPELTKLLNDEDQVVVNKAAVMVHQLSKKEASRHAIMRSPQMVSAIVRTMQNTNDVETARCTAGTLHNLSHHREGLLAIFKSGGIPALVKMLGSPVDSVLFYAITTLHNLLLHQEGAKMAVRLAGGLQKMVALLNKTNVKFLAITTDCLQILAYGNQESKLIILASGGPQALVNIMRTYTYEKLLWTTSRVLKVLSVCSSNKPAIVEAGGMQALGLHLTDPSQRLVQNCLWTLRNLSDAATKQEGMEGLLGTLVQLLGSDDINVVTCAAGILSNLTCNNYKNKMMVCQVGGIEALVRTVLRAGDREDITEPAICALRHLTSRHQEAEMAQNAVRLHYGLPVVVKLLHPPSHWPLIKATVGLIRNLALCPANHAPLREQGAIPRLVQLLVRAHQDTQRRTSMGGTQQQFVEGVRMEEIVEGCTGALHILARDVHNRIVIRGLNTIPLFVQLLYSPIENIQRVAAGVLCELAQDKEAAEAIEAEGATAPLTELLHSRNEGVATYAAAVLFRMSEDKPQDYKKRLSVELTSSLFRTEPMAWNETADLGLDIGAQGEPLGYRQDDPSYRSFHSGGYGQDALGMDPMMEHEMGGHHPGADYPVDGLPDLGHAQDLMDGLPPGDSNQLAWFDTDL
UniProt Q15717: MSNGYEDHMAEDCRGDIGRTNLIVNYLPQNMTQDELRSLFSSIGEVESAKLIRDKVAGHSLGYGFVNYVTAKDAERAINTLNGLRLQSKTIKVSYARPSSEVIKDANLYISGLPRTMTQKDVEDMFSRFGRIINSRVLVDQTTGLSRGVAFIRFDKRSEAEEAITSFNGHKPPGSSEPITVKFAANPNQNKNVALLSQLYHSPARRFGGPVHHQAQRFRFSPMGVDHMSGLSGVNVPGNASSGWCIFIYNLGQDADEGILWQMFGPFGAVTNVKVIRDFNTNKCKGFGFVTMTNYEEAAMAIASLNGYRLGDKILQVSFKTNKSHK

Where two headings read alike, the source gives them in different places. No constants are given. Whether binding was seen depends on the method and setting. Binding seen in cells or lysates may run through a third protein. Some binding calls cover weakened binding; strength is not graded here.

What all share (test): co-IP
The target in assay [1] is Musashi-2 (human (endogenous in K562, HEL and primary AML cells)) (UniProt Q96DH6).
The target is the same in assay [2]. This is another data set of the same source.
For assay [3], the target named is β-catenin (human (endogenous in K562, HEL and primary AML cells)) (UniProt P35222).

Take β-catenin (from UniProt P35222 1-781): the binding result in assay [1] and in assay [2] was “binds” each time.
Take HuR (from UniProt Q15717 1-326): in assay [3], the binding entry is “binds”.
